Some entries share one result that the patent states for a list of compounds.
Tested on: hindbrain neural progenitors
Experiment: Differentiation of hindbrain neural progenitors to ventral NKX2.2+ progenitors (FACS assay)
Assay type: cell-based, human
Details: 1000 ng/mL C25II SHH or 1 μM purmorphamine for one week

c1ccc2c(Oc3nc(Nc4ccc(N5CCOCC5)cc4)c4ncn(C5CCCCC5)c4n3)cccc2c1 [Pur, Purmorphamine]
NKX2.2+ cells of total cells: ≤ 91%

Reference: patent publication US11319527B2, “Methods of maintaining, expanding, and differentiating neuronal subtype specific progenitors” (Wisconsin Alumni Research Foundation, priority 2013, dated 2022)
